Data taken from US20140249298A1.
These are yes or no findings as the source states them, for the method shown. Some results given as binding are weak or reduced against the parent protein; the word gives no strength.

Experiments:
[1] = target: T1, synthetic hENT1 peptide AC-…-amide (SEQ ID NO: 59) coupled to BSA (human); experiment: ELISA
T1 sequence (peptide, N-terminal acetyl (Ac-), C-terminal amide; coupled to BSA): SKGEEPRAGKEESGVSVSC

[2] = target: T1, synthetic hENT1 peptide AC-…-amide (SEQ ID NO: 59) coupled to BSA (human); experiment: peptide ELISA
[3] = target: T1, synthetic hENT1 peptide AC-…-amide (SEQ ID NO: 59) coupled to BSA (human); experiment: peptide ELISA, 100-fold concentrated conditioned medium at dilutions of 1/10 to 1/640
[4] = target: T1, synthetic hENT1 peptide AC-…-amide (SEQ ID NO: 59) coupled to BSA (human); experiment: peptide ELISA, BSA-peptide coated at 2 ug/ml, purified samples at 1/5000, goat anti-mouse IgG-HRP detection

binding [1]: binds
binding [2]: binds
binding [3]: binds
binding [4]: binds
B1: recombinant murine IgG1 kappa anti-hENT1 antibody, variable regions derived from the 10D7G2 hybridoma, transiently expressed in CHO cells (antibody, V domains shown)
VH: QVHLQQSGAELVRPGASVTLPCKASGYTFTDYEMHWVKQTPVHGLEWIGAIDPETGAIVYNQKFKGKATLTADKSSNTAYMELRSLTSEDSAVYYCTREFTYWGQGTLVTVSA
VL: DVLMTQTPLTLSVTIGQPASVSCRSSQSLLFSNGKTYLNWLFQRPGQSPKRLIYLVSKLNSGVPDRFTGTGSGTDFSLKISRVEAEDLGVYYCVQGTHFPWTFGGGTKLEIKR
